Test results published in article PMC3648344 (BMC Structural Biology, 2013).
Results are given in words; binding and its absence hold for the method and conditions named.

Biological target: MnmC from Escherichia coli (E. coli) (UniProt P77182)
Assay: SEC; both purified

B1: MnmC from Escherichia coli (enzyme, UniProt P77182 1-668)
chain: MKHYSIQPANLEFNAEGTPVSRDFDDVYFSNDNGLEETRYVFLGGNQLEVRFPEHPHPLFVVAESGFGTGLNFLTLWQAFDQFREAHPQAQLQRLHFISFEKFPLTRADLALAHQHWPELAPWAEQLQAQWPMPLPGCHRLLLDEGRVTLDLWFGDINELTSQLDDSLNQKVDAWFLDGFAPAKNPDMWTQNLFNAMARLARPGGTLATFTSAGFVRRGLQDAGFTMQKRKGFGRKREMLCGVMEQTLPLPCSAPWFNRTGSSKREAAIIGGGIASALLSLALLRRGWQVTLYCADEAPALGASGNRQGALYPLLSKHDEALNRFFSNAFTFARRFYDQLPVKFDHDWCGVTQLGWDEKSQHKIAQMLSMDLPAELAVAVEANAVEQITGVATNCSGITYPQGGWLCPAELTRNVLELAQQQGLQIYYQYQLQNLSRKDDCWLLNFAGDQQATHSVVVLANGHQISRFSQTSTLPVYSVAGQVSHIPTTPELAELKQVLCYDGYLTPQNPANQHHCIGASYHRGSEDTAYSEDDQQQNRQRLIDCFPQAQWAKEVDVSDKEARCGVRCATRDHLPMVGNVPDYEATLVEYASLAEQKDEAVSAPVFDDLFMFAALGSRGLCSAPLCAEILAAQMSDEPIPMDASTLAALNPNRLWVRKLLKGKAVKAG
binding: no binding (tested: approximately 1 mg applied)
